This is one part of the list.
Tests used:
Assay in all cases: log2 fold change, soluble protein after heating vs DMSO (PISA); higher = thermal stabilisation; K562 cells, 10 uM, 30 min; active = over 0.2 and 3.5 SD of the protein, either way, in both replicates (recomputed)
[1] = compound: CC1=C2C(=CC=C1)N=C(N(C2=O)C3=CC=CC=C3C)CN4C=NC5=C(N=CN=C54)N
Outline: (§1)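 Soluble protein was defined as the supernatant after 21,000xg for 90 min. It came from K562 cells at 2×10^6 cells/mL given 10 μM compound for 30 min, heated in aliquots for 3 min across 48°C-58°C, pooled, and extracted in PBS with 0.5% NP-40 at 4°C, and was quantified by TMTpro 16plex LC-MS/MS with equalised channel sums. Thermal stability against control samples, from duplicates, is reported as log2 fold change.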

Chains of the proteins cited; added tags and fusions are not shown. Lines headed by an entry give the natural chain unless they say otherwise; changes in a name come on top.
UniProt Q15543, whole entry, looked up: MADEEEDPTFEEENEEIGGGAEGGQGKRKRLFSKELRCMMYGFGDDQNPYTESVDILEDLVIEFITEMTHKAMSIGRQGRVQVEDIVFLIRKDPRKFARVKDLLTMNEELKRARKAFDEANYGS
UniProt Q15527: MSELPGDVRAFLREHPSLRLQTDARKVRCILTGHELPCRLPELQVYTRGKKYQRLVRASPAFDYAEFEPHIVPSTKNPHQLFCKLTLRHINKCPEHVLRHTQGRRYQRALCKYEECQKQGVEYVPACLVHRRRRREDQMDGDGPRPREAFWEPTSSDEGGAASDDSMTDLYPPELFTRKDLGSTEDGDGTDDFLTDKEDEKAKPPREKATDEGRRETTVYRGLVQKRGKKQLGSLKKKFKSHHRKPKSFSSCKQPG
UniProt Q15542, whole entry, looked up: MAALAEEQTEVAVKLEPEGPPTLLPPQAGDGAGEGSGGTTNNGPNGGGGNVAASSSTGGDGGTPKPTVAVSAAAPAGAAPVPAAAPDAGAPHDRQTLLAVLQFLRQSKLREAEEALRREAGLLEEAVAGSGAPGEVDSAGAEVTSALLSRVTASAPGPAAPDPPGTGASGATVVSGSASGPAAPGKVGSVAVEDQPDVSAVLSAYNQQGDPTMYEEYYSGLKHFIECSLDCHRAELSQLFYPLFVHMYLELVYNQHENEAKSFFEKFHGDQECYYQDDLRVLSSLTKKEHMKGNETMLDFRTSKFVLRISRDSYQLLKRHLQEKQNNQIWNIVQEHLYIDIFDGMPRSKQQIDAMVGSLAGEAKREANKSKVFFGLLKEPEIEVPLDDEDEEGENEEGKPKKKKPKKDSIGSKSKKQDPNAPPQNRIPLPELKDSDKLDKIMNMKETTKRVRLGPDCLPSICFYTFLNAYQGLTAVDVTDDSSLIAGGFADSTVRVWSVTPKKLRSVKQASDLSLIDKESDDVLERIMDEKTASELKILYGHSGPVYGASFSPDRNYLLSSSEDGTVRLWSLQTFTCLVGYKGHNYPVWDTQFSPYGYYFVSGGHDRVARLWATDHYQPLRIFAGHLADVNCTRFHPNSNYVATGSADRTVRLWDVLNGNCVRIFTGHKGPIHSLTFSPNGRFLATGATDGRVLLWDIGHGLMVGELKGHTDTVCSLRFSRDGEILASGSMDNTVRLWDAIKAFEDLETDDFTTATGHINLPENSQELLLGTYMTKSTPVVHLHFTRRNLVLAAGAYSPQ
UniProt Q86TM6, whole entry, looked up: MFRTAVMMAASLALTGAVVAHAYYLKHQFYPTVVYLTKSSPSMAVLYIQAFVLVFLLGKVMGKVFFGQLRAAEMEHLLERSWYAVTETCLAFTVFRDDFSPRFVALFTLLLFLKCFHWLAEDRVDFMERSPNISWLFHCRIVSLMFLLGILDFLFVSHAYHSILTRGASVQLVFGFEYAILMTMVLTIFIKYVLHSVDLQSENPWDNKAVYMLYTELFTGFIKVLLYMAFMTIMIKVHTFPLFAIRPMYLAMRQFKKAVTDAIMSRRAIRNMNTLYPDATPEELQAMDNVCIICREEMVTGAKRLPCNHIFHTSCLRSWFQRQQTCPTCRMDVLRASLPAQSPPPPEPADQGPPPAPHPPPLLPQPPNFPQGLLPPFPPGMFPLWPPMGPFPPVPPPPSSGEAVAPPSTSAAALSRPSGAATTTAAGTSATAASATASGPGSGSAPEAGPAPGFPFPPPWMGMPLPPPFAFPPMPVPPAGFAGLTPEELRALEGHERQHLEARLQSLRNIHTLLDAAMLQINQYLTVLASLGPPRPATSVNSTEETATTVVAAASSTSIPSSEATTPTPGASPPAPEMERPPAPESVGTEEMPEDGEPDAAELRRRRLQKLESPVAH

[2] = compound: Cc1sc2c(c1C)C(c1ccc(Cl)cc1)=N[C@@H](CC(=O)OC(C)(C)C)c1nnc(C)n1-2
Outline: as §1

[3] = compound: C1=CC=C(C=C1)[C@H](COC2=CC3=C(C=C2)NC(=O)N3)NC(=O)C4=CC=CN(C4=O)CC5=CC(=C(C=C5)F)F
Outline: as §1

[4] = compound: CC1=C(SC2=C1C(=N[C@H](C3=NN=C(N32)C)CC(=O)N)C4=CC=C(C=C4)Cl)C
Outline: as §1

[5] = compound: c1ccc([C@@H]2C[C@H]2NC2CCNCC2)cc1
Outline: as §1

Measured: log2 fold change

TAF13 (UniProt Q15543)
inactive: [1] 0.14 | [2] -0.261

SURF2 (UniProt Q15527)
inactive: [3] 0.056 | [4] -0.018 | [1] 0.033 | [2] -0.047 | [5] -0.044

TAF5 (UniProt Q15542)
inactive: [1] -0.101

SYVN1 (UniProt Q86TM6)
inactive: [3] -0.011 | [4] 0.085 | [1] 0.041 | [2] -0.069 | [5] 0.011

Source: the supplement of paper PMC10849652
